Experiment [1] concerns the target T1, Flag-GPATCH1 (G-patch domain containing 1) (UniProt Q9BRR8).
T1 sequence: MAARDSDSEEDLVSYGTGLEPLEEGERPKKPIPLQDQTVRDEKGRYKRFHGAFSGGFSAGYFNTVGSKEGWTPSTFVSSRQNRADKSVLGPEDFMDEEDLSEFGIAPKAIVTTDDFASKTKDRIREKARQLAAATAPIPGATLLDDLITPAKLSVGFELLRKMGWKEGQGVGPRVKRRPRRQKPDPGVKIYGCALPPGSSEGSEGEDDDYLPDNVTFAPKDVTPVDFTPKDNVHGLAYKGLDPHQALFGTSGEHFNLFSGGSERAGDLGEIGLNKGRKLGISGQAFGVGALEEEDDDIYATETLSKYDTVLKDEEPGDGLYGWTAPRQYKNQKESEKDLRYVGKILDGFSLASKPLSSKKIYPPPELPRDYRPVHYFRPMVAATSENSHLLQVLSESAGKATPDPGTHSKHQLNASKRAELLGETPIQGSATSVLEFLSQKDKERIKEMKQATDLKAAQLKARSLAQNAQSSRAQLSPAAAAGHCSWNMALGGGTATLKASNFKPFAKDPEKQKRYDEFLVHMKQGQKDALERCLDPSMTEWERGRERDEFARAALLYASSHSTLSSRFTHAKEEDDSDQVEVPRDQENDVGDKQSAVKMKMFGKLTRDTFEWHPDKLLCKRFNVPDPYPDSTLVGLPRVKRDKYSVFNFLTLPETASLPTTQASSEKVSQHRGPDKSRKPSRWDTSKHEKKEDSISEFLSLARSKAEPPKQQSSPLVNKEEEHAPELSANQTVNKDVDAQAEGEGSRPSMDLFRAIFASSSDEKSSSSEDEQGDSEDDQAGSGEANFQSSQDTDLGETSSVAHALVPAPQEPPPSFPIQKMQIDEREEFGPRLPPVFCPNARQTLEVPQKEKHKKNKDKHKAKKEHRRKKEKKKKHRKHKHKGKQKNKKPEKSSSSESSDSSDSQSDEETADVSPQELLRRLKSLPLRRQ
Nature of the experiment: co-IP; HeLa S3 co-transfected with HA-Tax and Flag-WDR83 or Flag-GPATCH1, 48 hours; IP overnight with 5 ug Flag or IgG antibody, rProtein A/G beads, five washes with RIPA lysis buffer, Western blot. On the technique in general: A western blot detects proteins with antibodies after separation by electrophoresis.

Experiment [2] deals with T2, Flag-WDR83 (WD repeat domain 83) (UniProt Q9BRX9).
T2 sequence: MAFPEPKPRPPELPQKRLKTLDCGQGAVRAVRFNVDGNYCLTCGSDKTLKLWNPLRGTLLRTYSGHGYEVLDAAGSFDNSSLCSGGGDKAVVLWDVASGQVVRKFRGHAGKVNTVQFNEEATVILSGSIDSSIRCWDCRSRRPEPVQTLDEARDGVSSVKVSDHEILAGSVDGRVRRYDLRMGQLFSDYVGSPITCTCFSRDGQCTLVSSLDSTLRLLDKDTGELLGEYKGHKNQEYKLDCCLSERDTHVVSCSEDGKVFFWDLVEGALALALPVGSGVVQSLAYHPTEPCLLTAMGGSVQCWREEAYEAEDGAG
The experiment is described as above.

The target in experiment [3] is T3, G-patch domain containing 1 (GPATCH1), endogenous (human (endogenous in HeLa S3, ATL-2 and ATL-T)) (UniProt Q9BRR8).
T3 sequence: T1 sequence
Nature of the experiment: co-IP; endogenous proteins in ATL-2 and ATL-T cells (1 x 10^6 cells); rProtein A/G beads, five washes with RIPA lysis buffer, Western blot; the precipitating antibody is not named for this experiment.

Experiment [4] deals with T4, WD repeat domain 83 (WDR83), endogenous (human (endogenous in HeLa S3, ATL-2 and ATL-T)) (UniProt Q9BRX9).
T4 sequence: T2 sequence
The description is as above.

Results are given in words; binding and its absence hold for the method and conditions named. In cells and extracts the contact can be indirect. Some results given as binding are weak or reduced against the parent protein; the word gives no strength. For some of these results: Sequences can lack the tags named with a protein.

Regarding HA-Tax (from UniProt P03409 1-353), the binding result in experiment [1] and in experiment [2] was “binds” throughout.
In the case of “Tax (endogenous, HTLV-1 infected cells) (from UniProt P03409 1-353)”, the binding result in experiment [3] and in experiment [4] was “binds” each time.

These data come from article PMC12313066.
